{
  "source": "patent US9045563B2",
  "about": "“CXC chemokine receptor 4 (CXCR4) antagonistic polypeptide” (priority 2007, dated 2015)",
  "test_system": "X4 tropic HIV-1 NL4-3",
  "conditions": "read-out: IC50 ± SEM; TZM-bl cells, X4 tropic HIV-1 NL4-3, two days post infection, synthetic peptides",
  "experimental": "HIV inhibition test were performed by seeding 4000 P4-R5 MAGI cells (P. Charneau et al., J. Mol. Biol. 241: 651, 1994) in 100 μl of DMEM (10% FCS, 100 U/ml penicillin G, and 100 μg/ml streptomycin sulfate). P4-R5 cells are stably transfected with an LTR-lacZ cassette and upon successful infection by HIV-1 will express—galactosidase in a Tat-dependent manner, which can be detected in a chemiluminescence test. On the following day, aliquots of the fractions were added. Therefor the lyophilized fractions were resuspended in 80 μl of DMEM, and 25 μl each thereof was pipetted to P4-R5 cells, incubated at 37° C. for 1 hour and subsequently infected with HIV-1 NL4—3 (1 ng of p24 antigen). […] Three days post infection, β-galactosidase activity in infected P4-R5 cells was detected using GalScreen assay (TROPIX) as recommended by the manufacturer. […] Subsequently, the lumines-cence was detected as relative light units per second in a luminometer (Berthold, ORION). From all measurements, the mean β-galactosidase background activity of non-infected control cells was subtracted. % infection values for each infection were calculated relative to no peptide containing controls (100%). […]\n1.6 mg of fraction 31 from the 7th step in Example 1 was dissolved in 160 μl of DMEM. […] Three days later, infection rates were determined in a GalScreen assay (see Example 1). […]",
  "note": "pIC50: −log10 of the molar value. Some entries share one result that the patent states for a list of compounds. Ends that are not written are not given here.",
  "data": [
    {"substance": "LVRYTKK [ALB408-414, LVRYTKK]", "values": [
      {"measurement": "pIC50", "value": "< 4.30"}
    ]}
  ]
}
